Measured values reported in patent publication US4732972A, “Polypeptides having growth hormone releasing activity” (Hoffmann-La Roche Inc., priority 1985, dated 1988).
Not every detail of the peptide structures is certain; ends, links or a residue may be inferred.

System: rat pituitary cells
Experiment: Growth hormone release in rat pituitary cells in tissue culture (RIA for rat growth hormone)
Type: cell-based
Conditions: for Growth Hormone Released, Percentage of Control / Growth Hormone Released: 3 hours incubation; for Growth Hormone Released: control 82; for Average relative potency compared to the Salk Institute standard / Significance of difference of relative potency from the standard: rat cell culture test of Example 2
Description: The biological activity of (Leu^27)-GRF(1-44)-OH was compared with that of natural GRF(1-44)-NH2 which was isolated from a human pancreatic tumor of an individual suffering from acromegaly (Salk Institute standard hp-GRF-NH2 (NL-A-10)). The assay for biological activity, which is based on the ability to stimulate production of growth hormone in rat pituitary cells in tissue culture, was performed in the following manner.
Pituitaries from 30-40 male Sprague-Dawley rats (175 g) were removed aseptically after decapitation. The anterior lobes were collected, washed 3 times in sterile Hepes buffer (0.025M) (pH 7.35) and dispersed at 37° C. in 20-30-ml Hepes buffer (pH 7.35) containing collagenase (4 mg per ml) and Dispase (Protease grade II, 2 mg per ml). After gentle 100-110-min vortexing and trituration by Pasteur pipette, the dispersed cells were separated by centrifugation (150×g, 4 min) and re-suspended in Hepes buffer containing neuraminidase (8 μg/ml), and 200 μg/ml ethylenedinitrilotetraacetic acid (EDTA) disodium salt pH 7.35, for 10 min. The cells were washed twice with plating medium and plated on multiwell-plates (1.5×10^5 cells per ml) using the following defined medium: F-12/DMEM/(6:3:1) (Gibco: 430-1700/430-1600/320-2591) with 2 g BSA/l., 2.38 g Hepes/l, 50 mg Garamycin/l (Schering Co.). The medium in each well was supplemented either with (Leu^27)-GRF(1-44)-OH or natural GRF(1-44)-NH2 at concentrations ranging from 3.1 to 200 fmol. per ml. of medium. Control wells contained no supplement. Plating was done with this medium added with 2% fetal calf serum to ensure rapid fixation of the cells. On the fourth day the cells were washed twice with the defined medium without fetal calf serum. Finally 900 μl of defined medium was added to each well plus 100 μl of the same medium containing each individual treatment, in triplicate. After 3 hours of incubation the medium was collected and diluted as required to conduct radioimmunoassays (RIAs) for rat growth hormone. RIAs were conducted using Sinha's anti-murine GH immune serum.

Structure (SMILES)	Growth Hormone Released, Percentage of Control (dose 3.1 f mol./ml.)	Growth Hormone Released (dose 3.1 f mol./ml.) [ng/mL]	Growth Hormone Released, Percentage of Control (dose 6.3 f mol./ml.)	Growth Hormone Released (dose 6.3 f mol./ml.) [ng/mL]	Growth Hormone Released, Percentage of Control (dose 12.5 f mol./ml.)	Growth Hormone Released (dose 12.5 f mol./ml.) [ng/mL]	Growth Hormone Released, Percentage of Control (dose 25.0 f mol./ml.)	Growth Hormone Released (dose 25.0 f mol./ml.) [ng/mL]	Growth Hormone Released, Percentage of Control (dose 50.0 f mol./ml.)	Growth Hormone Released (dose 50.0 f mol./ml.) [ng/mL]	Growth Hormone Released, Percentage of Control (dose 100.0 f mol./ml.)	Growth Hormone Released (dose 100.0 f mol./ml.) [ng/mL]	Growth Hormone Released, Percentage of Control (dose 200.0 f mol./ml.)	Growth Hormone Released (dose 200.0 f mol./ml.) [ng/mL]	Average relative potency compared to the Salk Institute standard	Significance of difference of relative potency from the standard
CC[C@H](C)[C@H](NC(=O)[C@H](C)NC(=O)[C@H](CC(=O)O)NC(=O)[C@H](C)NC(=O)[C@@H](N)Cc1ccc(O)cc1)C(=O)N[C@@H](Cc1ccccc1)C(=O)N[C@H](C(=O)N[C@@H](CC(N)=O)C(=O)N[C@@H](CO)C(=O)N[C@@H](Cc1ccc(O)cc1)C(=O)N[C@@H](CCCNC(=N)N)C(=O)N[C@@H](CCCCN)C(=O)N[C@H](C(=O)N[C@@H](CC(C)C)C(=O)NCC(=O)N[C@@H](CCC(N)=O)C(=O)N[C@@H](CC(C)C)C(=O)N[C@@H](CO)C(=O)N[C@@H](C)C(=O)N[C@@H](CCCNC(=N)N)C(=O)N[C@@H](CCCCN)C(=O)N[C@@H](CC(C)C)C(=O)N[C@@H](CC(C)C)C(=O)N[C@@H](CCC(N)=O)C(=O)N[C@@H](CC(=O)O)C(=O)N[C@H](C(=O)N[C@@H](CCSC)C(=O)N[C@@H](CO)C(=O)N[C@@H](CCCNC(=N)N)C(=O)N[C@@H](CCC(N)=O)C(=O)N[C@@H](CCC(N)=O)C(=O)NCC(=O)N[C@@H](CCC(=O)O)C(=O)N[C@@H](CO)C(=O)N[C@@H](CC(N)=O)C(=O)N[C@@H](CCC(N)=O)C(=O)N[C@@H](CCC(=O)O)C(=O)N[C@@H](CCCNC(=N)N)C(=O)NCC(=O)N[C@@H](C)C(=O)N[C@@H](CCCNC(=N)N)C(=O)N[C@@H](C)C(=O)N[C@@H](CCCNC(=N)N)C(=O)N[C@@H](CC(C)C)C(N)=O)[C@@H](C)CC)C(C)C)[C@@H](C)O [GRF(1-44)-NH2, reference compound]	143 Percentage of Control	117	193 Percentage of Control	158	256 Percentage of Control	210	318 Percentage of Control	261	418 Percentage of Control	343	528 Percentage of Control	433	637 Percentage of Control	522	–	–
CC[C@H](C)[C@H](NC(=O)[C@H](C)NC(=O)[C@H](CC(=O)O)NC(=O)[C@H](C)NC(=O)[C@@H](N)Cc1ccc(O)cc1)C(=O)N[C@@H](Cc1ccccc1)C(=O)N[C@H](C(=O)N[C@@H](CC(N)=O)C(=O)N[C@@H](CO)C(=O)N[C@@H](Cc1ccc(O)cc1)C(=O)N[C@@H](CCCNC(=N)N)C(=O)N[C@@H](CCCCN)C(=O)N[C@H](C(=O)N[C@@H](CC(C)C)C(=O)NCC(=O)N[C@@H](CCC(N)=O)C(=O)N[C@@H](CC(C)C)C(=O)N[C@@H](CO)C(=O)N[C@@H](C)C(=O)N[C@@H](CCCNC(=N)N)C(=O)N[C@@H](CCCCN)C(=O)N[C@@H](CC(C)C)C(=O)N[C@@H](CC(C)C)C(=O)N[C@@H](CCC(N)=O)C(=O)N[C@@H](CC(=O)O)C(=O)N[C@H](C(=O)N[C@@H](CC(C)C)C(=O)N[C@@H](CO)C(=O)N[C@@H](CCCNC(=N)N)C(=O)N[C@@H](CCC(N)=O)C(=O)N[C@@H](CCC(N)=O)C(=O)NCC(=O)N[C@@H](CCC(=O)O)C(=O)N[C@@H](CO)C(=O)N[C@@H](CC(N)=O)C(=O)N[C@@H](CCC(N)=O)C(=O)N[C@@H](CCC(=O)O)C(=O)N[C@@H](CCCNC(=N)N)C(=O)NCC(=O)N[C@@H](C)C(=O)N[C@@H](CCCNC(=N)N)C(=O)N[C@@H](C)C(=O)N[C@@H](CCCNC(=N)N)C(=O)N[C@@H](CC(C)C)C(N)=O)[C@@H](C)CC)C(C)C)[C@@H](C)O [[Leu^27]-GRF(1-44)-NH2, Leu^27 -GRF(1-44)-NH2]	–	–	–	–	–	–	–	–	–	–	–	–	–	–	0.42	Neither of these values was significantly different from the standard
CCCC[C@H](NC(=O)[C@@H](NC(=O)[C@H](CC(=O)O)NC(=O)[C@H](CCC(N)=O)NC(=O)[C@H](CC(C)C)NC(=O)[C@H](CC(C)C)NC(=O)[C@H](CCCCN)NC(=O)[C@H](CCCNC(=N)N)NC(=O)[C@H](C)NC(=O)[C@H](CO)NC(=O)[C@H](CC(C)C)NC(=O)[C@H](CCC(N)=O)NC(=O)CNC(=O)[C@H](CC(C)C)NC(=O)[C@@H](NC(=O)[C@H](CCCCN)NC(=O)[C@H](CCCNC(=N)N)NC(=O)[C@H](Cc1ccc(O)cc1)NC(=O)[C@H](CO)NC(=O)[C@H](CC(N)=O)NC(=O)[C@@H](NC(=O)[C@H](Cc1ccccc1)NC(=O)[C@@H](NC(=O)[C@H](C)NC(=O)[C@H](CC(=O)O)NC(=O)[C@H](C)NC(=O)[C@@H](N)Cc1ccc(O)cc1)[C@@H](C)CC)[C@@H](C)O)C(C)C)[C@@H](C)CC)C(=O)N[C@@H](CO)C(=O)N[C@@H](CCCNC(=N)N)C(=O)N[C@@H](CCC(N)=O)C(=O)N[C@@H](CCC(N)=O)C(=O)NCC(=O)N[C@@H](CCC(=O)O)C(=O)N[C@@H](CO)C(=O)N[C@@H](CC(N)=O)C(=O)N[C@@H](CCC(N)=O)C(=O)N[C@@H](CCC(=O)O)C(=O)N[C@@H](CCCNC(=N)N)C(=O)NCC(=O)N[C@@H](C)C(=O)N[C@@H](CCCNC(=N)N)C(=O)N[C@@H](C)C(=O)N[C@@H](CCCNC(=N)N)C(=O)N[C@@H](CC(C)C)C(N)=O [[NLeu^27]-GRF(1-44)-NH2, Nle^27 -GRF(1-44)-NH2]	–	–	–	–	–	–	–	–	–	–	–	–	–	–	0.89	Neither of these values was significantly different from the standard
